Results from paper PMC4669809.
Results are given in words; binding and its absence hold for the method and conditions named. In cells and extracts the contact can be indirect. Some binding calls cover weakened binding; strength is not graded here.

Amino acid sequences for entries named in this document (tags omitted).
UniProt P02340: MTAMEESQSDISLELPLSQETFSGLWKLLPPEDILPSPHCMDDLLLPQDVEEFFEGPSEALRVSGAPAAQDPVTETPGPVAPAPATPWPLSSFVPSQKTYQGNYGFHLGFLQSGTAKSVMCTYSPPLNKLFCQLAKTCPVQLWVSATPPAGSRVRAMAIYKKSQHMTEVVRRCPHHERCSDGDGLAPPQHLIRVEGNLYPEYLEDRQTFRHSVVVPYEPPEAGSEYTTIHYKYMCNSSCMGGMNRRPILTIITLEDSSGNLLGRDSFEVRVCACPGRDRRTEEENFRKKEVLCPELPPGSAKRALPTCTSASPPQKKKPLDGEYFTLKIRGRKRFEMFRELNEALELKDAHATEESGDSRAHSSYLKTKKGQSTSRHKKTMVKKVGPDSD

Experiments:
[1] = target: p53 (mouse (endogenous in D3 murine embryonic stem cells)) (UniProt P02340); assay: co-IP; p53 precipitated from 1 mg D3 mESC lysate (10 mM HEPES pH 7.4, 50 mM NaCl, 0.5 M sucrose, 0.5% Triton X-100, DNAse) with anti-p53 antibody 1C12 on protein A-agarose, 2 h at 4 °C; MdmX detected by western blot; cells not irradiated or irradiated with 7 Gray and lysed 3 h later (interaction strongly reduced after irradiation)
[2] = target: p53 (mouse (endogenous in D3 murine embryonic stem cells)) (UniProt P02340); assay: co-sedimentation; 10-40% sucrose gradient of lysates of D3 mESCs and of D3 cells differentiated 7 days with retinoic acid, 100 000 x g, 4 °C, 18 h; 28 fractions analysed by western blot

- binding [1]: binds
- binding [2]: binds
B1: MdmX (mouse double minute X) (protein, UniProt O35618 1-489)
chain: MTSHSTSAQCSASDSACRISSEQISQVRPKLQLLKILHAAGAQGEVFTMKEVMHYLGQYIMVKQLYDQQEQHMVYCGGDLLGDLLGCQSFSVKDPSPLYDMLRKNLVTSASINTDAAQTLALAQDHTMDFPSQDRLKHGATEYSNPRKRTEEEDTHTLPTSRHKCRDSRADEDLIEHLSQDETSRLDLDFEEWDVAGLPWWFLGNLRNNCIPKSNGSTDLQTNQDIGTAIVSDTTDDLWFLNETVSEQLGVGIKVEAANSEQTSEVGKTSNKKTVEVGKDDDLEDSRSLSDDTDVELTSEDEWQCTECKKFNSPSKRYCFRCWALRKDWYSDCSKLTHSLSTSNITAIPEKKDNEGIDVPDCRRTISAPVVRPKDGYLKEEKPRFDPCNSVGFLDLAHSSESQEIISSAREQTDIFSEQKAETESMEDFQNVLKPCSLCEKRPRDGNIIHGKTSHLTTCFHCARRLKKSGASCPACKKEIQLVIKVFIA
